For 17 compounds, cell number change and AC50 results are on record in PubChem BioAssay AID2685 (National Center for Advancing Translational Sciences (NCATS), 2010).

This assay can be described thus: qHTS Assay for Lipid Storage Modulators in Drosophila S3 Cells.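 On cell number change: cells counted by Cell Tracker Red CMTPX staining in the red channel.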 Particulars: BODIPY lipid droplet fluorescence, 18-24 h; for cell number change: measured here: cell count max response, cells fed with added oleic acid. The procedure, abridged:
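Drosophila S3 cells loaded with oleic acid (400 uM, as added) and compounds at several concentrations; lipid droplets imaged by 488-nm laser-scanning cytometry, 500–530 nm intensity and object ratio to cell channel. Percent activity normalized to 20 uM Triacsin C.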

Where [1] appears, read: measured here: lipid fluorescence (Fed channel) AC50, cells fed with added oleic acid.
Where [2] appears, read: measured here: cell number channel AC50, cells fed with added oleic acid.

This is one part of the list. Shown are side measurements of this screen, not its main read-out; they come without a call. The list favours compounds with an active or inconclusive main result. The note in brackets gives the kind of curve behind each potency; many fits are weak.

Turning to `COc1cccc(CNC(=O)COC(=O)CCc2cc(OC)c(OC)c(OC)c2)c1`, the cell number change was determined as 2.68%.

In the case of `O=C(NNc1c2ccccc2nc2ccccc12)c1ccc(Cl)cc1`, the cell number change is -75.4%.

Turning to `Cc1ccc(NC(=O)CCCc2ccccc2)nc1`, the cell number change is 1.28%.

Broadly, the AC50 is the concentration at which the activity in the assay is half-maximal. A high value points to weaker potency. With `O=C(Nc1ccc2sccc2c1)c1cccc(N2C(=O)CCC2=O)c1`, the cell number change is -95.7%. Besides, the half-maximal activity concentration (AC50) under setting [1] was 18.4 µM [falling, partial curve].

Turning to `CCOc1ccc(S(=O)(=O)NCc2ccccn2)cc1NC(=O)c1ccccc1F`, the cell number change turned out to be 112%. In addition, the AC50 under setting [2] is 29.1 µM [rising, single point]. Also, the concentration at half-maximal activity (AC50) under setting [1] was 0.366 µM [falling, full curve].

As to `CCc1ccccc1NS(=O)(=O)c1ccc2[nH]cc(C(=O)NC3CCCC3)c(=O)c2c1`, the cell number change turned out to be 12.8%.

As to `CC(=O)c1cccc(NC(=O)C2CCN(C(=O)c3ccccc3Cl)CC2)c1`, the cell number change worked out at 17.9%. For the same compound, the half-maximal activity concentration (AC50) under setting [1] was 3.66 µM [rising, full curve, poor fit].

Take `O=C(COC(=O)c1ccc(Cl)c(S(=O)(=O)N2CCOCC2)c1)NCc1ccco1`: the cell number change was found to be 12%.

As to `CCN(CC)c1ccc(NC2=C(Cl)C(=O)c3ccccc3C2=O)cc1`, the cell number change is -17.9%. For the same compound, under setting [2], the half-maximal activity concentration (AC50) was 0.206 µM [falling, full curve, poor fit]. Moreover, under setting [1], the AC50 is 0.103 µM [falling, full curve, poor fit].

For `Cc1cc(C)c(-n2nnnc2SC(C)C)c(C)c1`, the AC50 is 6.51 µM [rising, single point] under setting [2] and 5.17 µM [rising, single point] under setting [1].

With `COC(=O)COc1cc(OCC(=O)OC)c2c(-c3ccccc3)cc(=O)oc2c1`, the cell number change is -17.1%.

As for `COC(=O)c1cn(C(=O)c2ccco2)c2ccccc12`, the cell number change amounted to 6.99%. Also, the concentration at half-maximal activity (AC50) under setting [1] is 0.00461 µM [falling, full curve, poor fit].

Regarding `C=CCn1c(-c2ccc(S(=O)(=O)N3CCOCC3)cc2)csc1=Nc1ccccc1`, the cell number change is -40.4%. Further, the AC50 under setting [2] is 29.1 µM [falling, partial curve, poor fit]. Also, the concentration at half-maximal activity (AC50) under setting [1] was 29.1 µM [falling, single point].

For the compound `CCOc1ccc2nc(SCC(=O)NC(=O)C(C)C)sc2c1`, the cell number change is -28.1%. In addition, the AC50 under setting [1] is 7.31 µM [falling, partial curve, poor fit].

Take `CCOC(=O)C1CCN(C(=O)/C=C/c2ccc(OC)cc2)CC1`: the cell number change came out at 14.1%. Moreover, the concentration at half-maximal activity (AC50) under setting [1] was 5.8 µM [falling, partial curve].

For `Cc1cc(C)nc(SCC(=O)NCc2ccco2)n1`, the cell number change was 1.56%. Besides, under setting [1], the concentration at half-maximal activity (AC50) was 0.0058 µM [falling, full curve, poor fit].

`O=C(O)CC1=C(c2ccc(F)cc2)CCC1=O`: the cell number change came out at 7.7%. Besides, the AC50 under setting [2] was 6.51 µM [rising, single point]. For the same compound, the half-maximal activity concentration (AC50) under setting [1] was 0.0164 µM [falling, full curve].
